Laboratory results taken from the supplement of paper PMC6411743.
± gives the standard deviation of the averaged measurements. The list shows a part of the results, in another mix than the full data. Small differences around the control level are noise.

Sequences of proteins named here, by UniProt entry; tags and fusion partners are left off. A change or cut given only in a name is not applied to a line headed by its entry.
UniProt P19397: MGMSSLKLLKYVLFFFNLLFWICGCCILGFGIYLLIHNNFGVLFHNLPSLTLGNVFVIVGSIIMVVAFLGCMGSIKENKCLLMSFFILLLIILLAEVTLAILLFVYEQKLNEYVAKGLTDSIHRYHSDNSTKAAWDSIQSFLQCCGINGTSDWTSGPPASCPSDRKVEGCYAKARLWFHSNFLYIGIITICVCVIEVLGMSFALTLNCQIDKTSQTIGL
UniProt P35579, whole entry: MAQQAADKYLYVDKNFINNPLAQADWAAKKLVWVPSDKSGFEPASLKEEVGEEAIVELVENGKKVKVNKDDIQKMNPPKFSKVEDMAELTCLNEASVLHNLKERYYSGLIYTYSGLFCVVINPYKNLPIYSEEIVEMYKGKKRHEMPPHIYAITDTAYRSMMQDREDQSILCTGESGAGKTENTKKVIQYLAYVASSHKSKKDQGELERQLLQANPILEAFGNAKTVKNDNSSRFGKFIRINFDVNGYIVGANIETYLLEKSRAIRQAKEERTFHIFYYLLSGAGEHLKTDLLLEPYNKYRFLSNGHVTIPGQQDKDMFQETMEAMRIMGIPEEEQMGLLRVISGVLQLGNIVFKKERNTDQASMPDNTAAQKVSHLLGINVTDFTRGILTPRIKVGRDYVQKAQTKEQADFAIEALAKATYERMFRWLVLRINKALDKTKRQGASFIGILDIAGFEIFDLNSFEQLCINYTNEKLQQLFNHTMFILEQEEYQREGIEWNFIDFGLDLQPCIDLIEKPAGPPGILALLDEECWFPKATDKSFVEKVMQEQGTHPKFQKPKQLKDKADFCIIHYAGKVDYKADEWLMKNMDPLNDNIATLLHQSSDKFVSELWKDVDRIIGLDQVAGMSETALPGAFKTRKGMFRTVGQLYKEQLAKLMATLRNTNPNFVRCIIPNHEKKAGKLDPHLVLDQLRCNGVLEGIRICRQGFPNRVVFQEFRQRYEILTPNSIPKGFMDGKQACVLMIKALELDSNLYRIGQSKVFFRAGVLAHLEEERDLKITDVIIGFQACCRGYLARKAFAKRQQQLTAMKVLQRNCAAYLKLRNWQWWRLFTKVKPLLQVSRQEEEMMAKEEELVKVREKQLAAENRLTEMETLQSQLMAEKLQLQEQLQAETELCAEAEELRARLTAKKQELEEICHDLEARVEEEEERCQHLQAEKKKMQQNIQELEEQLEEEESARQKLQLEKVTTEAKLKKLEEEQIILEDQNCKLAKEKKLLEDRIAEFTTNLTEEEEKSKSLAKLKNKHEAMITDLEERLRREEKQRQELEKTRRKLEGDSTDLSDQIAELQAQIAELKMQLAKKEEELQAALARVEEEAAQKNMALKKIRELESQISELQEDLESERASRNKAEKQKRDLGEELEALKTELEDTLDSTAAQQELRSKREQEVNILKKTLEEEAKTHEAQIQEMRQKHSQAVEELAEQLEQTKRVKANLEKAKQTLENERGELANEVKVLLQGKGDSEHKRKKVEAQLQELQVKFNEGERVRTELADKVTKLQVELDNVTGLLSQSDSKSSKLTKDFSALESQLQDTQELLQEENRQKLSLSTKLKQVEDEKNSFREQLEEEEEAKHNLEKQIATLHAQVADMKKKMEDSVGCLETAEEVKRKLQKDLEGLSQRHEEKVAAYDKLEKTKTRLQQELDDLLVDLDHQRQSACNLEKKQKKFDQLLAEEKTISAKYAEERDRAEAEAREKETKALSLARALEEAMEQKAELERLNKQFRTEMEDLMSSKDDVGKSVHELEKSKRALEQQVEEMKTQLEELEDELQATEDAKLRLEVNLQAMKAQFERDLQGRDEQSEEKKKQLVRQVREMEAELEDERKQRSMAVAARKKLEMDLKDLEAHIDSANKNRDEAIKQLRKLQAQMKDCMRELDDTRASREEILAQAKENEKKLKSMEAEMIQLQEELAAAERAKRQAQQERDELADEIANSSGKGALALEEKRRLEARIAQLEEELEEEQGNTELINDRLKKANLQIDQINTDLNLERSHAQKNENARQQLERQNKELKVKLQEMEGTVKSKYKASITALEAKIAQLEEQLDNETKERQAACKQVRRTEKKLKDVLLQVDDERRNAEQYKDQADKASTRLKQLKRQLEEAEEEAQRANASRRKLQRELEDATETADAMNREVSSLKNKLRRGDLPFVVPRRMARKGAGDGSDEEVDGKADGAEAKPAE
UniProt P20339: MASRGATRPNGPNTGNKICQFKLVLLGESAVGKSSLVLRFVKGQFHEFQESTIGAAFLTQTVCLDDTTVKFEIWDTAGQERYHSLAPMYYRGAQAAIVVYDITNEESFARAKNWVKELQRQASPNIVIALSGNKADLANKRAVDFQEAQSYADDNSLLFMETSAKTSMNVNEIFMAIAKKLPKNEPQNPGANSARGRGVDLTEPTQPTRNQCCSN
UniProt P17706: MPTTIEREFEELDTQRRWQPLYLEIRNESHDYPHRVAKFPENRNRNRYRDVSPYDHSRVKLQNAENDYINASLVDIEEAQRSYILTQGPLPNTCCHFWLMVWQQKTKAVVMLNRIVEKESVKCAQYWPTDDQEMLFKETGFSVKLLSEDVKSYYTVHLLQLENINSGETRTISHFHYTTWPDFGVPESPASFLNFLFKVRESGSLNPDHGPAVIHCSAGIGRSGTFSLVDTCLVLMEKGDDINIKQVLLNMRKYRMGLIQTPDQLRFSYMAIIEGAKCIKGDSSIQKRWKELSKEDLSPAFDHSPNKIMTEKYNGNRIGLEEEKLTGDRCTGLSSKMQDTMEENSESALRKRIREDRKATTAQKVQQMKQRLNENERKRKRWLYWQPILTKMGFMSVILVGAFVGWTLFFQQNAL
UniProt P29350: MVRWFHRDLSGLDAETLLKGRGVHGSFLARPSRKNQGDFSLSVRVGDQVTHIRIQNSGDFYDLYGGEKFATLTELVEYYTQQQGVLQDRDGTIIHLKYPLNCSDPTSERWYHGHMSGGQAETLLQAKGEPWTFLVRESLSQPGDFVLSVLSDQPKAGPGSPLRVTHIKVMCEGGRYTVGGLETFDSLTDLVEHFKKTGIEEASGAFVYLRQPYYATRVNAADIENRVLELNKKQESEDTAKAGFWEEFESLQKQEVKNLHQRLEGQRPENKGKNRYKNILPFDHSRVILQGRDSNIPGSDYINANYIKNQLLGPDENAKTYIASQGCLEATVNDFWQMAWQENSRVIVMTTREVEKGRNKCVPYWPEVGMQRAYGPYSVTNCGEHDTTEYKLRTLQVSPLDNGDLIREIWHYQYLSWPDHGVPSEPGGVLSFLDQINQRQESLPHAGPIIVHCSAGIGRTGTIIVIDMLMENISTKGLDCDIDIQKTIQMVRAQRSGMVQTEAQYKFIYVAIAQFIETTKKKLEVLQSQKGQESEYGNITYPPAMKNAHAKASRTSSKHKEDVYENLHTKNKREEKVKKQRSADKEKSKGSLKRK
UniProt P29590: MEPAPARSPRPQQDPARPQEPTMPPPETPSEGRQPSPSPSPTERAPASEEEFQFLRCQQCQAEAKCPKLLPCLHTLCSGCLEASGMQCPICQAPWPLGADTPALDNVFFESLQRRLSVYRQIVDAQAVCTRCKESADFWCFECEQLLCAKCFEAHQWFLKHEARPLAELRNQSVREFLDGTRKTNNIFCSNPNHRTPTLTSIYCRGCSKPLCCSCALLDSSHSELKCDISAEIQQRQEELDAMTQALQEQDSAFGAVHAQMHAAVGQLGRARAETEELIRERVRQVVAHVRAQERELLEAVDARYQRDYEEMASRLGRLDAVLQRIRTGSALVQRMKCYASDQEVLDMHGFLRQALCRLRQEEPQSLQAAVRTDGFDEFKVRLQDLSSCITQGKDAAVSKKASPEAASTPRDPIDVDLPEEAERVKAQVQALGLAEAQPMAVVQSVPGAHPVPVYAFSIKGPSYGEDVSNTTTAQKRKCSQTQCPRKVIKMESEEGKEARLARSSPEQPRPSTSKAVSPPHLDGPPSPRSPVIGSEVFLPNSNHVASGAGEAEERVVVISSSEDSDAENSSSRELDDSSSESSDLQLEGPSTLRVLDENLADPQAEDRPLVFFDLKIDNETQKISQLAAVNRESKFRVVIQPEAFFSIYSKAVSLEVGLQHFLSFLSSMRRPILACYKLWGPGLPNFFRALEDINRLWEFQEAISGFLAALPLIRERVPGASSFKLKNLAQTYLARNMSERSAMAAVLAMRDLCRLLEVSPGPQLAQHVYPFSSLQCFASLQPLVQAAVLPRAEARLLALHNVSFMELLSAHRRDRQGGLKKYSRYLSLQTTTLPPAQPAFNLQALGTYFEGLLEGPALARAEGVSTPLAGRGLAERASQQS
UniProt P23246: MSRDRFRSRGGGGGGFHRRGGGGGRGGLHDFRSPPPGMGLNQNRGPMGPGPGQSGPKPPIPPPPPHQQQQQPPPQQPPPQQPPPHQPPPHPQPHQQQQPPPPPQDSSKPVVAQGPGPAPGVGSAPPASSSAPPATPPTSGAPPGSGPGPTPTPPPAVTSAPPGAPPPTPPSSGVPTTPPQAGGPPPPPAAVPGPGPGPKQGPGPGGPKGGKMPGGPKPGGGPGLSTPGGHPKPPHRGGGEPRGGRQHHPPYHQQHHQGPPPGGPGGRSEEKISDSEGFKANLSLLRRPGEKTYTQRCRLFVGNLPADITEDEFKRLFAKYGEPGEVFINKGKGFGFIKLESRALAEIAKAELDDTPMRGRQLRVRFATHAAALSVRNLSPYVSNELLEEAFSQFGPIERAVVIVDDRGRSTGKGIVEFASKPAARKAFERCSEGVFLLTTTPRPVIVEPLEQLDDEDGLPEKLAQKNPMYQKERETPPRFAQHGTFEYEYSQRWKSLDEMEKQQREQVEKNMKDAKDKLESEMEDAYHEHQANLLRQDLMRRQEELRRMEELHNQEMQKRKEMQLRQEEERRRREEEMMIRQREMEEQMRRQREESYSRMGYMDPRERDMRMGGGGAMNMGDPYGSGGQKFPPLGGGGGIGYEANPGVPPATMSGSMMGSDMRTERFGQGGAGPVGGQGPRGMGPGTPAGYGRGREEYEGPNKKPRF
UniProt P39687: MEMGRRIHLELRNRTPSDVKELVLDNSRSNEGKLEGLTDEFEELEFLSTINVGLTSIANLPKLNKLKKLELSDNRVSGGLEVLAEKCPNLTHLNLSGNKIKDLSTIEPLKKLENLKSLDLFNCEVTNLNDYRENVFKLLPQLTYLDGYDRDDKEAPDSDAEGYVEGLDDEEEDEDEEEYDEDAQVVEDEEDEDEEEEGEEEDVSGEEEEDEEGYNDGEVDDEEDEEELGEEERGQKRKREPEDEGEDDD
UniProt P23025: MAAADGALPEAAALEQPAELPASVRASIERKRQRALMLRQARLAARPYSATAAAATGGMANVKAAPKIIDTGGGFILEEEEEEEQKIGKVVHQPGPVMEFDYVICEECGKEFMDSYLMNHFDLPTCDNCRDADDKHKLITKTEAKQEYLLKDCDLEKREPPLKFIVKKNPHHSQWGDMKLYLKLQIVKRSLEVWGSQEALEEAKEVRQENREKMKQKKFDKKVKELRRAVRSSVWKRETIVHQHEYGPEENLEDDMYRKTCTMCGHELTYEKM
UniProt P32121, whole entry: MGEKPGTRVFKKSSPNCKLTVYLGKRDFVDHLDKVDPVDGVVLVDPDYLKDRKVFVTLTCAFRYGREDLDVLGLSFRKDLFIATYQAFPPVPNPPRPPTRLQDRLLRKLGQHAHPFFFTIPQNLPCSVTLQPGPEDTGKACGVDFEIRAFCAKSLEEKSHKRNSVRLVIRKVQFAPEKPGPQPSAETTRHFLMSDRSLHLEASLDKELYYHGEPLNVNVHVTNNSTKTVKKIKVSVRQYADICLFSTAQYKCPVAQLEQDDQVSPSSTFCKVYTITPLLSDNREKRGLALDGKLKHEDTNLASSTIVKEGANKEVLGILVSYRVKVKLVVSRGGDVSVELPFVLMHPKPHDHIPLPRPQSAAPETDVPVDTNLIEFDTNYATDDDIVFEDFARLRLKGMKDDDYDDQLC
UniProt P30825: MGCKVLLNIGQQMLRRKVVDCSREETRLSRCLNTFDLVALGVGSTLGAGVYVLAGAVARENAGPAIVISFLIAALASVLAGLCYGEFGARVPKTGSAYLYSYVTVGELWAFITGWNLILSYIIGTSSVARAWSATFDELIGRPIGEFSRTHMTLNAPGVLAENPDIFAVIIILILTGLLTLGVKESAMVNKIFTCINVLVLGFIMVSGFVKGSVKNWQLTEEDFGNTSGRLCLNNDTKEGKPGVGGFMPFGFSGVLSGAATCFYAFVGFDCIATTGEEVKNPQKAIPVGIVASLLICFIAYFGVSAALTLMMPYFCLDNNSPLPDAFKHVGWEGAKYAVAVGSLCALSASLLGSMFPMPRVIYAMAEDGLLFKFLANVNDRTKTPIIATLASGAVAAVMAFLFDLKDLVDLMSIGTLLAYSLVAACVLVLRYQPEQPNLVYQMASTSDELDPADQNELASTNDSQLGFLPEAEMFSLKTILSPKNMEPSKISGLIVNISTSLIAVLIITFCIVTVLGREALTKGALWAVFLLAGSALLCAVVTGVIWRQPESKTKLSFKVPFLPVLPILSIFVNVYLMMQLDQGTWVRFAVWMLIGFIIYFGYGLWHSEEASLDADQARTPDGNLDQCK

Compound: Nc1ncnc2c1ncn2[C@@H]1O[C@H](COP(=O)(O)OP(=O)(O)NP(=O)(O)O)[C@@H](O)[C@H]1O [adenylyl imidodiphosphate]
Assay: NP40-soluble protein abundance relative to vehicle (solubility fold change) (ratio); higher = more soluble protein in presence of AMP-PNP
Details: concentration: 0.1mM
Summary of the method: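 Each value is a fold change relative to the detergent-processed vehicle, calculated per replicate from vsn-normalised intensities. Jurkat crude lysate received eight concentrations (0.1 to 10 mM) for 10 min at room temperature and 3 min at 37 °C, then was solubilised in 0.8% NP40 with benzonase (60 min, 4 °C). The ultracentrifuged supernatant was TMT-labelled and run by LC-MS/MS in three independent experiments.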

Target	NP40-soluble protein abundance
UniProt P35221 and related entries	0.984 ± 0.043
CD53 (UniProt P19397)	0.982 ± 0.043
MYH9 (UniProt P35579)	1 ± 0.05
HPCAL1 (UniProt P37235)	0.986 ± 0.019
UniProt P32519 and related entries	0.955 ± 0.011
UniProt P20339 and related entries	0.995 ± 0.054
UniProt P31948 and related entries	0.977 ± 0.025
UniProt P17706 and related entries	0.973 ± 0.048
STOM (UniProt P27105)	1.01 ± 0.023
UniProt P18754-2|P18754	0.991 ± 0.015
RDX (UniProt P35241)	0.986 ± 0.063
UniProt P29350 and related entries	1.01 ± 0.011
PSMB4 (UniProt P28070)	0.989 ± 0.018
UniProt P29590 and related entries	0.997 ± 0.04
UniProt P27361	1.02 ± 0.041
UniProt P32189 and related entries	1.014 ± 0.008
SP100 (UniProt P23497)	0.992 ± 0.041
SFPQ (UniProt P23246)	1.02 ± 0.04
EIF2S2 (UniProt P20042)	0.979 ± 0.022
UniProt P39687 and related entries	0.964 ± 0.012
RPL12 (UniProt P30050)	1.01 ± 0.021
XPA (UniProt P23025)	0.9888 ± 0.0059
RPL13 (UniProt P26373)	1.06 ± 0.022
AGL (UniProt P35573)	1.07 ± 0.053
UniProt P32121 and related entries	1.02 ± 0.059
WARS (UniProt P23381)	0.994 ± 0.017
SLC7A1 (UniProt P30825)	0.9751 ± 0.0084

Look-ups from the results shown:
NP40-soluble protein abundance with SLC7A1 (UniProt P30825) is entered as 0.9751 ± 0.0084
NP40-soluble protein abundance with EIF2S2 (UniProt P20042) is entered as 0.979 ± 0.022
